Measurements from paper PMC12069581.
Results are given in words; binding and its absence hold for the method and conditions named. Binding seen in cells or lysates may run through a third protein. Some binding calls cover weakened binding; strength is not graded here. Where a sequence is shown, tags or fusion partners need not be part of it.

Sequences of proteins named here, by UniProt entry; tags and fusion partners are left off.
UniProt P26196: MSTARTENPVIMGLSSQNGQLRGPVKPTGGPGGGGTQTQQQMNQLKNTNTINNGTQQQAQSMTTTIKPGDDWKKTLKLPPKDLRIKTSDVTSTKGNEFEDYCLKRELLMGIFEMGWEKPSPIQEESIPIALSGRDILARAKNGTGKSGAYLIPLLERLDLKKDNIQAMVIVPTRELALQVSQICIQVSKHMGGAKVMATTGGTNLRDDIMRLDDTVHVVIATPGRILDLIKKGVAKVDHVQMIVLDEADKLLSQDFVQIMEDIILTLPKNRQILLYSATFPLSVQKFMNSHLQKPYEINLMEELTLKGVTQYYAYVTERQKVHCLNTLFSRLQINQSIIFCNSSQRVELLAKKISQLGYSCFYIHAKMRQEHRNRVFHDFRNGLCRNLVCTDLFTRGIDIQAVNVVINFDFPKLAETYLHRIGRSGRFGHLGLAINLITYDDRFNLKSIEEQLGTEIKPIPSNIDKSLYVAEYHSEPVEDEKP

T1: flag-praja2 (wild-type) (UniProt O43164)
T1 sequence: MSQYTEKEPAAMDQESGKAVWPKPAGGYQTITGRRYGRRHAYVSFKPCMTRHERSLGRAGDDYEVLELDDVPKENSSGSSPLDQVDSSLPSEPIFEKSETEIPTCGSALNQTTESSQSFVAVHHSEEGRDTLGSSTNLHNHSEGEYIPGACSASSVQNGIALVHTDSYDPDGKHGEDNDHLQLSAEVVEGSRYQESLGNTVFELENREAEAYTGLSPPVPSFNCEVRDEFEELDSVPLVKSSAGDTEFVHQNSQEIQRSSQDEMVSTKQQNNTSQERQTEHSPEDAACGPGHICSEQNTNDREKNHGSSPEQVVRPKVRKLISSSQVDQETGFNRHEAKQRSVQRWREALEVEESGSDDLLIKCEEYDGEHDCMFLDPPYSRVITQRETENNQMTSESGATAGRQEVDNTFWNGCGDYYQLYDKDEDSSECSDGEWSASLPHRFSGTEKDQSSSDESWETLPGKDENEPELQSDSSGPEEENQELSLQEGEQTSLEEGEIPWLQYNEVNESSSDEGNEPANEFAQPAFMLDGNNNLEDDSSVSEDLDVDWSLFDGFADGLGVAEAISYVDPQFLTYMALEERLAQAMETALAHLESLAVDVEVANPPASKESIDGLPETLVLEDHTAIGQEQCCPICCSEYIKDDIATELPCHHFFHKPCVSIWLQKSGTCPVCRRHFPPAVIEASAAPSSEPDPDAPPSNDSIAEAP

B1: enhancer of mRNA decapping 3 (EDC3) (endogenous, HEK293) (protein, UniProt Q96F86 1-508)
chain: MATDWLGSIVSINCGDSLGVYQGRVSAVDQVSQTISLTRPFHNGVKCLVPEVTFRAGDITELKILEIPGPGDNQHFGDLHQTELGPSGAGCQVGINQNGTGKFVKKPASSSSAPQNIPKRTDVKSQDVAVSPQQQQCSKSYVDRHMESLSQSKSFRRRHNSWSSSSRHPNQATPKKSGLKNGQMKNKDDECFGDDIEEIPDTDFDFEGNLALFDKAAVFEEIDTYERRSGTRSRGIPNERPTRYRHDENILESEPIVYRRIIVPHNVSKEFCTDSGLVVPSISYELHKKLLSVAEKHGLTLERRLEMTGVCASQMALTLLGGPNRLNPKNVHQRPTVALLCGPHVKGAQGISCGRHLANHDVQVILFLPNFVKMLESITNELSLFSKTQGQQVSSLKDLPTSPVDLVINCLDCPENVFLRDQPWYKAAVAWANQNRAPVLSIDPPVHEVEQGIDAKWSLALGLPLPLGEHAGRIYLCDIGIPQQVFQEVGINYHSPFGCKFVIPLHSA
B2: flag-praja2 (wild-type) (protein, UniProt O43164 1-708)
chain: T1 sequence

Experiments:
flag-praja2 (wild-type) = target: T1, flag-praja2 (wild-type); assay: co-IP; HEK293 co-transfected with flag-praja2 and Gfp-DDX6; lysates immunoprecipitated with anti-flag, blotted with anti-flag, anti-Gfp, anti-DCP1A, anti-EDC3; lysis buffer 1% Triton, 150 mM NaCl, 50 mM Tris HCl pH 7.5, 1 mM EDTA
DDX6-myc (human) = DDX6-myc (human) (UniProt P26196); assay: co-IP; HEK293 co-transfected with flag-praja2 (wild-type or Δ530–630) and DDX6-myc; lysates immunoprecipitated with anti-myc, blotted with anti-myc and anti-flag; lysis buffer 1% Triton, 150 mM NaCl, 50 mM Tris HCl pH 7.5, 1 mM EDTA

Row | Binder | binding (flag-praja2 (wild-type)) | binding (DDX6-myc (human))
1 | B1 | binds | –
2 | B2 | – | binds
